Results on 61 compounds are retold here after PubChem BioAssay AID2685 (National Center for Advancing Translational Sciences (NCATS), 2010).

The other results are listed elsewhere or left out. These are further read-outs of the screen, such as a control signal, another cell line or another target. No call is given for them. Compounds called inactive in the main read-out are mostly missing here. The note in brackets gives the kind of curve behind each potency; many fits are weak.

This test in a line: qHTS Assay for Lipid Storage Modulators in Drosophila S3 Cells.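 On cell number change: cells counted by Cell Tracker Red CMTPX staining in the red channel.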 Particulars: BODIPY lipid droplet fluorescence, 18-24 h; for cell number change: measured here: cell count max response, cells fed with added oleic acid. An outline of the steps: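 Drosophila S3 cells loaded with oleic acid (400 uM, as added) and compounds at several concentrations; lipid droplets imaged by 488-nm laser-scanning cytometry, 500–530 nm intensity and object ratio to cell channel. Percent activity normalized to 20 uM Triacsin C.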
In general terms: qHTS replaces the single test concentration by a dilution series.

[1] abbreviates: measured here: lipid fluorescence (Fed channel) AC50, cells fed with added oleic acid.
Setting [2] is: measured here: cell number channel AC50, cells fed with added oleic acid.

For `COc1ccccc1CCNC(=O)CCNS(=O)(=O)c1ccc(NC(C)=O)cc1`, the cell number change came out at 14.6%. Under setting [1], the concentration at half-maximal activity (AC50) is 0.103 µM [falling, full curve, poor fit].
Take `CC(C(=O)NCCN1CCOCC1)c1ccc([N+](=O)[O-])cc1` (centres undefined): the cell number change was -0.455%. Also, the AC50 under setting [2] is 4.61 µM [falling, single point]. Further, the AC50 under setting [1] is 0.058 µM [falling, full curve, poor fit].
With `NC(=O)C1CCN(C(=O)Cc2ccsc2)CC1`, the cell number change worked out at 29.7%.
Consider `C=CCOc1c(Cl)cc(CNc2ccc(N(C)C)cc2)cc1OC`, for which the cell number change is -56.4%. Besides, the half-maximal activity concentration (AC50) under setting [2] was 25.9 µM [falling, partial curve]. Under setting [1], the AC50 was 23.1 µM [falling, single point].
Take `COc1ccc(C(=O)NC(=C(Cl)Cl)S(=O)(=O)c2ccc(C)cc2)cc1`: the cell number change is -6.9%. Moreover, the AC50 under setting [1] was 8.2 µM [falling, partial curve, poor fit].
Take `COc1ccc(/C=C2\CCC(C3CCCC3)C2=O)c(OC)c1` (centres undefined): the cell number change was -18.4%. For the same compound, the concentration at half-maximal activity (AC50) under setting [1] was 29.1 µM [falling, single point].
Consider `CCC1C(=NO)C(CC)C(c2ccccc2)NC1c1ccccc1` (centres undefined), for which the cell number change was -41.5%. Besides, the AC50 under setting [2] was 23.1 µM [falling, single point]. For the same compound, the concentration at half-maximal activity (AC50) under setting [1] was 18.4 µM [falling, single point].
Take `COc1ccc(NC(=O)c2ccco2)cc1NC(=O)c1c(F)c(F)c(OC)c(F)c1F`: the cell number change worked out at 49%. Besides, the concentration at half-maximal activity (AC50) under setting [2] was 3.26 µM [rising, full curve]. Besides, under setting [1], the concentration at half-maximal activity (AC50) was 29.1 µM [rising, single point].
Consider `CCN(c1ccccc1)S(=O)(=O)c1ccc(OCC(=O)Nc2cc(C)on2)cc1`, for which the cell number change worked out at 51%. Moreover, the AC50 under setting [2] was 4.11 µM [rising, full curve].
In the case of `COC(=O)C(C(=O)OC)c1ccccc1[N+](=O)[O-]`, the cell number change is -13.9%. Moreover, the AC50 under setting [1] was 2.31 µM [falling, full curve, poor fit].
With `O=C1CC(NC(=O)C(F)(F)F)c2cc3c(cc21)OCO3` (centres undefined), the cell number change was -29.9%.
Same read-out and setting: the value for `CCCC(=O)NC1=C(C#N)C2(CCCCC2)Cc2ccccc21` was -6.59%.
On to `Cc1cc(NC(=O)CCC(=O)N(CC(=O)NCC2CCCO2)c2cccc(C)c2C)no1` (centres undefined), for which the cell number change was 12.5%. For the same compound, the AC50 under setting [1] is 1.16 µM [falling, single point].
As for `O=C(NNC(=O)C1CC1)c1ccc(-c2ccccc2)cc1`, the cell number change was determined as 56.4%. Moreover, the AC50 under setting [2] was 9.2 µM [rising, partial curve, poor fit]. Under setting [1], the AC50 was 4.61 µM [falling, single point].
Turning to `CC(C)Oc1ccc(N2C(=O)c3ccccc3C2=O)cc1`, the half-maximal activity concentration (AC50) under setting [1] is 5.17 µM [falling, partial curve].
Consider `O=C(NCc1ccco1)c1ccccc1-c1ccccc1`, for which, under setting [2], the AC50 was 0.146 µM [falling, full curve].
On to `COCc1[nH][nH]c(=O)c1/C=N/N1CCOCC1`, for which the cell number change was -17.8%.
On to `C/C(Nc1ccccc1)=C(/C#N)C(N)=O`, for which the cell number change worked out at 32.1%. Also, the AC50 under setting [2] is 29.1 µM [rising, single point].
In the case of `O=C(CN(CC1CCCO1)C(=O)CNS(=O)(=O)c1ccc(F)cc1)NCC1CCCO1` (centres undefined), the cell number change was determined as 7.69%. Further, the half-maximal activity concentration (AC50) under setting [1] is 0.103 µM [rising, partial curve, poor fit].
Consider `COc1ccc(NS(=O)(=O)/C=C/c2ccccc2)cc1`, for which the cell number change was -9.26%.
Consider `CC1=C(C(=O)NCCCOC(C)C)C2(CCC(C)CC2)OC1=O` (centres undefined), for which the cell number change is -10.4%. Besides, under setting [1], the concentration at half-maximal activity (AC50) was 10.3 µM [falling, partial curve].
On to `Cc1noc(C(=O)N2CCN(c3ccccc3)CC2)c1Cl`, for which the cell number change is -5.19%. Further, the concentration at half-maximal activity (AC50) under setting [1] is 0.58 µM [rising, full curve, poor fit].
On to `CCOc1ccc(NCc2nnc(SCC(=O)Nc3cc(C)on3)n2-c2ccc(OC)cc2)cc1`, for which the cell number change was determined as 26.3%. In addition, under setting [2], the concentration at half-maximal activity (AC50) was 0.366 µM [rising, partial curve, poor fit].
Take `O=C(COc1ccc(F)cc1Br)N1CCc2ccccc21`: the cell number change was -55.9%. The AC50 under setting [2] was 3.66 µM [falling, partial curve]. Also, the concentration at half-maximal activity (AC50) under setting [1] is 1.84 µM [falling, partial curve].
With `COc1cccc(-c2cc(C(=O)Nc3cc(C)nn3-c3ccccc3)no2)c1`, the cell number change was 20.3%. Further, the AC50 under setting [2] was 0.00411 µM [rising, full curve, poor fit].
`CCC(=O)N(Cc1ccco1)C1CC(=O)N(c2ccccc2)C1=O` (centres undefined): the cell number change is -0.355%. Under setting [1], the AC50 was 0.411 µM [falling, full curve, poor fit].
As to `CCOc1cc(-c2cc(-c3ccccc3)nc(N)c2C#N)ccc1O`, the cell number change was -35.5%. Under setting [2], the half-maximal activity concentration (AC50) was 29.1 µM [falling, single point].
In the case of `O=C(CCc1ccc(S(=O)(=O)N2CCOCC2)cc1)Nc1nc(COc2ccccc2)cs1`, the cell number change is -16.5%. Moreover, the AC50 under setting [2] is 0.231 µM [falling, full curve, poor fit].
Turning to `CN(CC(=O)Nc1ccc(F)cc1)C(=O)C1CCN(C(=O)Nc2ccccc2)CC1`, the cell number change is -1.93%. Also, the half-maximal activity concentration (AC50) under setting [1] was 0.0259 µM [falling, full curve, poor fit].
On to `CC(O)CNc1nc2c(c(=O)n(Cc3ccc(Br)cc3)c(=O)n2C)n1C` (centres undefined), for which the cell number change was -33.4%. Further, the concentration at half-maximal activity (AC50) under setting [2] is 25.9 µM [falling, single point].
As to `CCOC(=O)C1(C(F)(F)F)N=C(C(F)(F)F)Nc2ccccc21` (centres undefined), the cell number change worked out at 28.6%. For the same compound, the half-maximal activity concentration (AC50) under setting [1] is 6.51 µM [rising, single point].
Take `Cc1ccc(C)c(S(=O)(=O)Nc2ccc(C(N)=O)cc2)c1`: the cell number change turned out to be 15.6%. For the same compound, the AC50 under setting [1] is 5.17 µM [rising, single point].
For `O=C(NCC(Cl)c1ccc2ccccc2c1)c1c(F)cccc1F` (centres undefined), the cell number change was -28.3%. For the same compound, the concentration at half-maximal activity (AC50) under setting [1] was 0.092 µM [falling, partial curve, poor fit].
`COc1ccccc1-n1c(C)nc2cc(C(=O)NCc3ccc4c(c3)OCO4)ccc21`: the cell number change was -15.3%. In addition, the AC50 under setting [1] is 0.651 µM [falling, full curve, poor fit].
In the case of `COc1cccc(C(=O)NCCCNC(=O)c2cccc(OC)c2)c1`, the cell number change was found to be 7.3%. Further, under setting [1], the AC50 is 0.58 µM [rising, single point].
Regarding `CCOc1cccc(CN2CCC(n3nccc3NC(=O)C3CCCC3)CC2)c1`, the cell number change came out at 28.4%.
With `COc1ccc(/C=N/Nc2cn[nH]c(=O)c2Cl)cc1`, the cell number change is -8.08%. Moreover, under setting [2], the concentration at half-maximal activity (AC50) was 0.731 µM [falling, single point].
Turning to `O=C(OCC(=O)N1CCc2ccccc2C1)c1ccc(OC(F)F)cc1`, the cell number change came to 2.84%. Moreover, the concentration at half-maximal activity (AC50) under setting [1] is 0.058 µM [falling, full curve, poor fit].
On to `COc1ccc(-c2cc(C(=O)NCc3cccnc3)no2)cc1`, for which the cell number change stood at 18.8%. The AC50 under setting [1] is 16.4 µM [rising, single point].
`O=C(COc1ccc2ccccc2c1)Nc1cccc(C(=O)Nc2ccccc2C(=O)O)c1`: the cell number change is 2.82%. Moreover, the AC50 under setting [1] was 0.731 µM [rising, full curve, poor fit].
As to `Cc1nn(C/C(C#N)=N\O)c(C)[n+]1N`, the cell number change is -36.3%. Also, the concentration at half-maximal activity (AC50) under setting [1] is 5.17 µM [falling, full curve].
As to `COc1ccc(-c2cc3c(=O)n(CC(=O)NCc4ccc(C)cc4)ncn3n2)cc1`, the cell number change was 15.9%. Besides, under setting [1], the half-maximal activity concentration (AC50) was 20.6 µM [rising, single point].
With `C=CCN(CC=C)C(=O)c1c(OC)cccc1OC`, the cell number change is -6.82%. For the same compound, the concentration at half-maximal activity (AC50) under setting [1] was 1.03 µM [falling, full curve, poor fit].
For the compound `Cc1cc(/C=C2/C(=O)N(C)C(=S)N2C)ccc1N1CCCC1`, the AC50 under setting [1] is 3.98 µM [falling, full curve].
`Cc1c(C(=O)N2CCCCC2)nn(-c2ccc(Cl)cc2)c(=O)c1C#N`: the cell number change was -4.3%. In addition, the AC50 under setting [2] is 0.13 µM [rising, full curve, poor fit]. Moreover, the AC50 under setting [1] was 0.13 µM [rising, full curve, poor fit].
Consider `O=S(=O)(/N=C(\Sc1ccccc1)c1ccccc1)c1ccc(Cl)cc1`, for which the cell number change is 20.4%.
On to `CCOC(=O)NC(=O)/C(N=Nc1cccc(C(F)(F)F)c1)=C(\C)O`, for which the cell number change stood at 1.33%. For the same compound, the AC50 under setting [2] was 0.259 µM [falling, partial curve]. The half-maximal activity concentration (AC50) under setting [1] is 0.146 µM [falling, full curve].
For `O=C(COC(=O)Cc1ccc(Cl)cc1)Nc1c(F)cccc1F`, the cell number change is -36%. For the same compound, the concentration at half-maximal activity (AC50) under setting [2] was 0.411 µM [falling, full curve, poor fit].
For `CC(C)Oc1ccc(C(=O)N(CN2CCCC2=O)c2ccc(F)cc2)cc1`, the cell number change stood at 39.7%. Also, the half-maximal activity concentration (AC50) under setting [2] was 25.9 µM [rising, single point].
Take `Cc1ncc([N+](=O)[O-])n1Cc1ccc(F)cc1`: the cell number change was determined as 39.7%. Under setting [2], the half-maximal activity concentration (AC50) was 32.6 µM [rising, single point]. The AC50 under setting [1] is 2.91 µM [falling, single point].
For the compound `COc1ccc(CCNC(=O)COc2ccc(S(=O)(=O)NCC(C)C)cc2Cl)cc1OC`, the cell number change is -12.4%. For the same compound, the concentration at half-maximal activity (AC50) under setting [1] was 10.3 µM [falling, partial curve].
Turning to `CN1CCN(C(=O)CSc2nc(-c3cccs3)cc(-c3cccs3)c2C#N)CC1`, the cell number change was -24%. Also, the concentration at half-maximal activity (AC50) under setting [1] was 16.4 µM [falling, single point].
With `Cc1cn([C@@H](CCCCN)C(=O)NCCCCCCCCCCC(=O)N2CCNCC2)nn1`, the cell number change is -2.4%.
As for `COc1ccccc1/C=C/C(=O)Nc1cccnc1`, under setting [1], the half-maximal activity concentration (AC50) is 0.206 µM [falling, full curve, poor fit].
As to `O=C(CN1CCN(C(=O)C2CCCO2)CC1)Nc1c(Cl)cccc1Cl` (centres undefined), the cell number change is -15.3%. The AC50 under setting [2] is 2.91 µM [rising, single point].
Regarding `O=C(c1cccc(Br)c1)N1CCCC1`, the cell number change stood at 20.1%. The AC50 under setting [1] is 2.31 µM [rising, full curve, poor fit].
On to `COc1cccc(CNC(=O)CCS(=O)(=O)Cc2ccc(C)cc2)c1`, for which the cell number change turned out to be 9.73%. The concentration at half-maximal activity (AC50) under setting [1] was 6.51 µM [falling, single point].
Consider `CN1CCCC(OC(=O)c2cc(Br)ccc2Cl)C1` (centres undefined), for which the cell number change came to 21.7%.
`CCc1ccc(N(CC(=O)NC2CC2)S(=O)(=O)c2ccc(C)cc2)cc1`: the cell number change is 17.4%. The AC50 under setting [1] is 0.00411 µM [rising, full curve, poor fit].
Take `COCCC(=O)N1CCCC(C(=O)c2ccc(C(F)(F)F)cc2)C1` (centres undefined): the cell number change was -2.36%. Besides, the AC50 under setting [1] is 1.16 µM [rising, single point].
For `CN(C)CCCN(C(=O)CCOc1ccccc1)c1nc2c(F)cccc2s1`, the cell number change was -81.2%. In addition, the AC50 under setting [2] was 29.1 µM [falling, single point]. Moreover, the AC50 under setting [1] is 16.4 µM [falling, partial curve].

As usually defined, the AC50 is the concentration at which the activity in the assay is half-maximal.
